Laboratory results: the supplement of paper PMC4604168 (melanoma cell lines)
Some of the results follow. Repeats are few or missing, and single values can be far off.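 Imaging used 1,536-well plates; nuclei positive for cleaved PARP by antibody were divided by total DNA-stained nuclei to yield the apoptosis fraction. Doses for screening kept most cells viable, and cell lines differ markedly in resting and induced cleaved-PARP levels.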

How the values were obtained:
Assay in all cases: cleaved PARP positive nuclei fraction relative to DMSO control; melanoma cells; higher = more apoptosis
Settings in all cases: library dose: low library concentration; 72 h
501Mel = test system: 501Mel
A101D = test system: A101D
A2058 = test system: A2058
C32 = test system: C32
CBRC008 = test system: CBRC008 (line from a melanoma biopsy)
CBRC014 = test system: CBRC014 (line from a melanoma biopsy)
CBRC016 = test system: CBRC016 (line from a melanoma biopsy)
CBRC017 = test system: CBRC017 (line from a melanoma biopsy)
COLO792 = test system: COLO792
COLO800 = test system: COLO800
COLO829 = test system: COLO829
G361 = test system: G361
IPC-298 = test system: IPC-298
IST-MEL1 = test system: IST-MEL1
LB2518-MEL = test system: LB2518-MEL
LOXIMVI = test system: LOXIMVI

| Structure (SMILES) | cleaved PARP positive nuclei fraction (501Mel) [%] | cleaved PARP positive nuclei fraction (A101D) [%] | cleaved PARP positive nuclei fraction (A2058) [%] | cleaved PARP positive nuclei fraction (C32) [%] | cleaved PARP positive nuclei fraction (CBRC008) [%] | cleaved PARP positive nuclei fraction (CBRC014) [%] | cleaved PARP positive nuclei fraction (CBRC016) [%] | cleaved PARP positive nuclei fraction (CBRC017) [%] | cleaved PARP positive nuclei fraction (COLO792) [%] | cleaved PARP positive nuclei fraction (COLO800) [%] | cleaved PARP positive nuclei fraction (COLO829) [%] | cleaved PARP positive nuclei fraction (G361) [%] | cleaved PARP positive nuclei fraction (IPC-298) [%] | cleaved PARP positive nuclei fraction (IST-MEL1) [%] | cleaved PARP positive nuclei fraction (LB2518-MEL) [%] | cleaved PARP positive nuclei fraction (LOXIMVI) [%] |
| --- | --- | --- | --- | --- | --- | --- | --- | --- | --- | --- | --- | --- | --- | --- | --- | --- |
| Cc1cc(Nc2cc(N3CCN(C)CC3)nc(Sc3ccc(NC(=O)C4CC4)cc3)n2)n[nH]1 [Tozasertib] + O=C(Nc1ccccc1)c1cc([N+](=O)[O-])ccc1Cl [GW9662] (first compound 0.006 µM, partner dose 2 µM) | 158 | 28.5 | 161 | 134 | 64.6 | 244 | 128 | 103 | 79.9 | 83.7 | 128 | 104 | 45.1 | 103 | 66.9 | 65.8 |
| Cc1ccc(Nc2nccc(N(C)c3ccc4c(C)n(C)nc4c3)n2)cc1S(N)(=O)=O [Pazopanib] + CCCCCCCCCCCC1=C(O)C(=O)C=C(O)C1=O [Embelin] (first compound 0.4 µM, partner dose 1.2 µM) | 65.1 | 14.2 | 157 | 39.8 | 118 | 112 | 64 | 96.4 | 64.3 | 94.7 | 59.7 | 84.5 | 45.5 | 101 | 196 | 48.4 |
| CCCCCCCCCCCCCCCCCCOP(=O)([O-])OC1CC[N+](C)(C)CC1 [Perifosine] + CCN(CC)CCCCNc1ncc2cc(-c3cc(OC)cc(OC)c3)c(NC(=O)NC(C)(C)C)nc2n1 [PD173074] (first compound 0.4 µM, partner dose 0.1 µM) | 109 | 17.3 | 44.8 | 148 | 47.5 | 85.8 | 54.1 | 60.4 | 55.9 | 43.6 | 74.2 | 71.4 | 86.7 | 110 | 46.5 | 85.9 |
| O=c1[nH]nc(Sc2ncc([N+](=O)[O-])s2)n1-c1ccc2c(c1)OCCO2 + Cn1cc(/C=C2\C(=O)Nc3cccnc32)c2ccccc21 [GW441756] (first compound 0.2 µM, partner dose 0.4 µM) | 62 | 31.8 | 104 | 88.4 | 184 | 98.9 | 143 | 83.9 | 80 | 50.3 | 41.8 | 108 | 100 | 75.1 | 127 | 52.2 |
| O=c1[nH]nc(Sc2ncc([N+](=O)[O-])s2)n1-c1ccc2c(c1)OCCO2 + COc1ccc(COc2ccc(Cc3cnc(N)nc3N)cc2OC)cc1 [GW2580] (first compound 0.2 µM, partner dose 1 µM) | 69.2 | 75.5 | 28.9 | 76.8 | 120 | 87.6 | 76.5 | 86.1 | 89.1 | 175 | 112 | 146 | 58.6 | 128 | 66.5 | 137 |
| Cc1ccc(Nc2nccc(N(C)c3ccc4c(C)n(C)nc4c3)n2)cc1S(N)(=O)=O [Pazopanib] + COc1ccc(-c2ccc3c(N4CCOCC4)nc(N4C[C@@H](C)O[C@@H](C)C4)nc3n2)cc1CO [KU0063794] (first compound 0.4 µM, partner dose 0.02 µM) | 79.9 | 56.9 | 54.1 | 52.1 | 322 | 93.6 | 119 | 111 | 103 | 125 | 153 | 272 | 144 | 82.4 | 75.9 | 73.3 |
| O=C(Nc1cc(C(F)(F)F)cc(C(F)(F)F)c1)c1cc(Cl)ccc1O + CCc1ccc(CCOc2ccc(CC3SC(=O)NC3=O)cc2)nc1 [pioglitazone] (first compound 0.016 µM, partner dose 2 µM) | 69.1 | 25.5 | 80.3 | 47.3 | 73.3 | 77.1 | 58.6 | 101 | 66.5 | 116 | 45.5 | 66.3 | 46.5 | 127 | 71.6 | 118 |
| CC[C@]1(O)C[C@H]2CN(CCc3c([nH]c4ccccc34)[C@@](C(=O)OC)(c3cc4c(cc3OC)N(C=O)[C@H]3[C@@](O)(C(=O)OC)[C@H](OC(C)=O)[C@]5(CC)C=CCN6CC[C@]43[C@@H]65)C2)C1 [vincristine] + COc1ccc(-c2ccc3c(N4CCOCC4)nc(N4C[C@@H](C)O[C@@H](C)C4)nc3n2)cc1CO [KU0063794] (first compound 0.0001 µM, partner dose 0.02 µM) | 74.1 | 25.3 | 433 | 86 | 174 | 73.3 | 53.9 | 86.4 | 219 | 100 | 103 | 80.9 | 326 | 103 | 62.8 | 118 |
| CC[C@]1(O)C[C@H]2CN(CCc3c([nH]c4ccccc34)[C@@](C(=O)OC)(c3cc4c(cc3OC)N(C=O)[C@H]3[C@@](O)(C(=O)OC)[C@H](OC(C)=O)[C@]5(CC)C=CCN6CC[C@]43[C@@H]65)C2)C1 [vincristine] + O=c1cc(-c2cccc3c2Sc2ccccc2S3)oc(N2CCOCC2)c1 [KU55933] (first compound 0.0001 µM, partner dose 1 µM) | 101 | 14.7 | 802 | 875 | 114 | 115 | 176 | 145 | 112 | 57.6 | 227 | 237 | 189 | 53.7 | 81.5 | 57.6 |
